No constants are given. Whether binding was seen depends on the method and setting. In cells and extracts the contact can be indirect. These calls come from enrichment with a bait or labelling near it, and not all partners need be listed.
Target: StAR Related Lipid Transfer Domain Containing 10 (rat (endogenous in INS1 (832/13)))
Test: affinity purification with mass spectrometry; endogenous STARD10 immunoprecipitated from 1 mg INS1 (832/13) lysate with anti-PCTP-L (STARD10) antibody on Dynabeads Protein A, overnight at 4 °C; lysis buffer 20 mM HEPES, 150 mM NaCl, 1% Igepal; compared with rabbit IgG isotype control; on-bead trypsin digest, TMT labelling, nano-LC MS/MS

binding | Binder
binds | Rho guanine nucleotide exchange factor 7 (protein, UniProt O55043 1-646) MTDNANSQLVVRAKFNFQQTNEDELSFSKGDVIHVTRVEEGGWWEGTHNGRTGWFPSNYVREIKPSEKPVSPKSGTLKSPPKGFDTTAINKSYYNVVLQNILETEHEYSKELQSVLSTYLWPLQTSEKLSSANTSYLMGNLEEISSFQQVLVQSLEECTKSPEAQQRVGGCFLSLMPQMRTLYLAYCANHPSAVSVLTEHSEDLGEFMETKGASSPGILVLTTGLSKPFMRLDKYPTLLKELERHMEDYHPDRQDIQKSMTAFKNLSAQCQEVRKRKELELQILTEPIRSWEGDDIKTLGSVTYMSQVTIQCAGSEEKNERYLLLFPNLLLMLSASPRMSGFIYQGKLPTTGMTITKLEDSENHRNAFEISGSMIERILVSCNNQQDLHEWVEHLQRQTKVTSVSNPTIKPHSVPSHTLPSHPLTPSSKHADSKPVALTPAYHTLPHPSHHGTPHTTISWGPLEPPKTPKPWSLSCLRPAPPLRPSAALCYKEDLSRSPKTMKKLLPKRKPERKPSDEEFAVRKSTAALEEDAQILKVIEAYCTSAKTRQTLNSSSRKESAPQVLLPEEEKIIVEETKSNGQTVIEEKSLVDTVYALKDEVQELRQDNKKMKKSLEEEQRARKDLEKLVRKVLKNMNDPAWDETNL
binds | Nucleolar RNA helicase 2 (protein, UniProt Q3B8Q1 1-782) MPGKLRSASKSESEGTEESMETLQKPSEKKTRKEKPKSKTDEATEGVEEAASSKVKAVKKKGPSEDDVGPPKSKKAKKQEEEPQDDPASKSKTSKKKKEPLEKKAPSAKTKEMKAEEPSEEEADAPKPKKTKKGKEANGDVGEKSPGLKNGLSHPKPDSSSTQAPGEESETEKEIPVEQKEGAFSNFPISEETVKLLKARGVNFLFPIQAKTFHHVYSGKDLIAQARTGTGKTFSFAIPLIEKLQGGLQERKRGRAPQVLVLAPTRELANQVSKDFSDITKKLSVACFYGGTPYGGQIERMRSGIDILVGTPGRIKDHLQNGKLDLTKLKHVVLDEVDQMLDMGFADQVEEILCVAYKKDSEDNPQTLLFSATCPHWVFNVAKKYMKSTYEQVDLIGKKTQKAAITVEHLAIKCHWTERAAVIGDVIRVYSGHQGRTIIFCETKKDAQELSQNTCIKQDAQSLHGDIPQKQREITLKGFRNGNFGVLVATNVAARGLDIPEVDLVVQSCPPKDVESYIHRSGRTGRAGRTGVCICFYQHKEEYQLAQVEQKAGIKFKRIGVPSATEIIKASSKDAIRLLDSVPPTAIGHFKQSAEKLIEEKGAVEALAAALAHISGATSVDQRSLINSQAGFVTMILRCSVEMPNISYAWKELKEQLGESIDAKVKGMVFLKGKLGVCFDVRTEAVTEIKEKWHDSRRWQLTVATEQPELEGPPEGYRGGRGQRDGSRGSFRGQRGGSRNFRGQGQRGGSRNFRGQRPGGGNKSNRSPNKGQKRSFSKAFGQ
binds | Spermatogenesis-associated, serine-rich 2 (protein, UniProt F1LX68 1-550) MSRKQSQKDSSGFIFDLQSNTVLAQGGTFENMKEKINAVRAIVPNKSNNEIILVLQHFDNCVDKTVQAFMEGSASEVLKEWIVTGKKKNKKKKSKPKPASEASGSAPDSSKSAPAEEGQPASSEKGSINGYHVNGAINDTESVDSLSEGLETLSIDARELEDPEFATADALDRAGSVLENGVSDFEPKSLTTHSISNVQQSRNAAKSLSRATTGAQVSNLGMENVPLSSTNKKLGSNIEKSVKDLQRCTVSLARYRVVVKEEMDASIKKMKQAFAELQSCLMDREVALLAEMDKVKAEAMEILLSRQKKAELLKKMTDVAVRMSEEQLVELRADIKHFVSERKYDEDLGRVARFTCDVETLKQSIDSFGQVSHPKNSYSTRSRCSSLLPVSLLPVSCSGPSDVSAASSAPDASAPSLPGANKRNSAPREASAAMTNSSDRPCQAHREVFSGNRRGGQGYRPQNQKTTDPPNQGRHDNAGRYRNSSWYSSGPRHQAVPPQAPGSAGEWSRPYSAGTNGTGASSEPSPPKPSFKKGLPQRKPRASQAEAANS

Further lines, the binder ahead of its results:

Binder | binding
DEAD (Asp-Glu-Ala-Asp) box polypeptide 5 (protein, UniProt Q6AYI1 1-615) MSSYSSDRDRGRDRGFGAPRFGGSRTGPLSGKKFGNPGEKLVKKKWNLDELPKFEKNFYQEHPDLARRTAQEVDTYRRSKEITVRGHNCPKPVLNFYEANFPANVMDVIARQNFTEPTAIQAQGWPVALSGLDMVGVAQTGSGKTLSYLLPAIVHINHQPFLERGDGPICLVLAPTRELAQQVQQVAAEYCRACRLKSTCIYGGAPKGPQIRDLERGVEICIATPGRLIDFLECGKTNLRRTTYLVLDEADRMLDMGFEPQIRKIVDQIRPDRQTLMWSATWPKEVRQLAEDFLKDYIHINIGALELSANHNILQIVDVCHDVEKDEKLIRLMEEIMSEKENKTIVFVETKRRCDELTRKMRRDGWPAMGIHGDKSQQERDWVLNEFKHGKAPILIATDVASRGLDVEDVKFVINYDYPNSSEDYIHRIGRTARSTKTGTAYTFFTPNNIKQVSDLISVLREANQAINPKLLQLVEDRGSGRSRGRGGMKDDRRDRYSAGKRGGFNTFRDRENYDRGYSSLLKRDFGAKTQNGVYSAANYTNGSFGSNFVSAGIQTSFRTGNPTGTYQNGYDSTQQYGSNVANMHNGMNQQAYAYPATAAAAPMIGYPMPTGYSQ | binds
U4/U6.U5 tri-snRNP-associated protein 1 (protein, UniProt Q5XIW8 1-806) MGSSKKHRGEKEAAGTTAAAGTGGTTEQPPRHREHKKHKHRSSGGGSSGGERRKRSRERGAERGSGRRGAEAEARSGAHGRERSQAEPSERRVKREKRDEGYEAAASSKASSGDASSLSIEETNKLRAKLGLKPLEVNAVKKEAGTKEEPVAADVINPMALRQREELREKLAAAKEKRLLNQKLGKIKTLGEDDPWLDDTAAWIERSRQLQKEKDLAEKRAKLLEEMDQEFGVSTLVEEEFEQRRQDLYSARDLQGLTVEHAIDSFREGETVVLTLKDKGVLQEGEDVLVNVNMVDKERADKNVELRKKKPDYLPYAEDESVDDLAQQKPRSILAKYDEELEGERPHSFRLEQGGMADGLRERELEEIRTKLRLQAQSLNTVGPRLASEYLSPEEMVTFKKTKRRVKKIRKKEKEVIMRADDLLPLGEDQTQDGDFGSRLRGRGRRRVPEVEEEALEDEEKDPVAQPPPSDDTRVENMDISDEEDGGALPSGPPELEEDEAELELQKQLEKGRRLRQLQQLQQLRDSGEKVLEIVKKLESRQRGWEEEEDPERKGTIVFNATSEFCRTLGEIPTYGLAGNREEQEELMDFERDEERSANGGSESDGEENIGWSTVNLDEEKQHQDFSASSTTILDEEPIVNRGLAAALLLCQNKGLLETTVQKVARVKAPNKSLPSAVYCIEDKMAIDDKYSRREEYRGFTQDFKEKDGYKPDVKIEYVDETGRKLTPKEAFRQLSHRFHGKGSGKMKTERRMKKLDEEALLKKMSSSDTPLGTVALLQEKQKAQKTPYIVLSGSGKSMNANTITK | binds
